Source: PMC7066131
These are yes or no findings as the source states them, for the method shown. Binding seen in cells or lysates may run through a third protein. Some results given as binding are weak or reduced against the parent protein; the word gives no strength. Where a sequence is shown, tags or fusion partners need not be part of it.

Key:
Test in all cases: co-IP; co-IP of MYC-PAQR3 with EGFP-NBEAL1 domain constructs (PH-BEACH-WD40, BEACH-WD40, BEACH) and full length EGFP-NBEAL1 as positive control (Supplemental Fig. 6)
[1] = molecular target: T1, EGFP-BEACH-WD40 (NBEAL1 1969–2694) (human) (UniProt Q6ZS30)
T1 sequence: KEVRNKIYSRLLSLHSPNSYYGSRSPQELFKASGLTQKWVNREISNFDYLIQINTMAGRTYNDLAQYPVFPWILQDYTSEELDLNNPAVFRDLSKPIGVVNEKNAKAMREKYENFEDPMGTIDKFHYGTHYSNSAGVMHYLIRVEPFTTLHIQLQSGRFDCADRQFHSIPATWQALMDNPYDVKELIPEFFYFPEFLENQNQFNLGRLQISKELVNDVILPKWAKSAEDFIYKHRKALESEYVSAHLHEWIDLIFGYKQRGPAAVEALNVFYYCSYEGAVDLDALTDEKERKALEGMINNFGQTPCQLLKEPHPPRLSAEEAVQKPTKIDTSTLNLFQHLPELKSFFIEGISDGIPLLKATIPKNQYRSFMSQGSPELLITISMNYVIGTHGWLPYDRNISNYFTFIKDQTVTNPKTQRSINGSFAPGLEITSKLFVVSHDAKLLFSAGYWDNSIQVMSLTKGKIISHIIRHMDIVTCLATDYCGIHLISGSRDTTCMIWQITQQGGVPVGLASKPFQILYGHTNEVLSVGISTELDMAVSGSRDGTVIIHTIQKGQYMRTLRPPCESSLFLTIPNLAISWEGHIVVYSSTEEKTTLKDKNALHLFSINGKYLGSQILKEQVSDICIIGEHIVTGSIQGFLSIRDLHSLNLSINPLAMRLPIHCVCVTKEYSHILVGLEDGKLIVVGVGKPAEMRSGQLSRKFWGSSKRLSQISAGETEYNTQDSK

[2] = molecular target: T2, EGFP-BEACH (NBEAL1 aa 1991–2284) (human) (UniProt Q6ZS30)
T2 sequence: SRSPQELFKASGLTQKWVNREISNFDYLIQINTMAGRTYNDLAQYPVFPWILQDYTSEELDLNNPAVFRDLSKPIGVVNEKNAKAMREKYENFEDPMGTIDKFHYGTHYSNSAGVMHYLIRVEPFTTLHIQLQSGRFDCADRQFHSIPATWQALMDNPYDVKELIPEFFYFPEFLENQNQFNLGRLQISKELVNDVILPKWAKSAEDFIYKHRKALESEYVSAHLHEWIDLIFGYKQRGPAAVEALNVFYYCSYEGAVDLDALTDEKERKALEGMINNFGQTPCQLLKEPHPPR

[3] = molecular target: T3, EGFP-PH-BEACH-WD40 (NBEAL1 aa 1815–2694) (human) (UniProt Q6ZS30)
T3 sequence: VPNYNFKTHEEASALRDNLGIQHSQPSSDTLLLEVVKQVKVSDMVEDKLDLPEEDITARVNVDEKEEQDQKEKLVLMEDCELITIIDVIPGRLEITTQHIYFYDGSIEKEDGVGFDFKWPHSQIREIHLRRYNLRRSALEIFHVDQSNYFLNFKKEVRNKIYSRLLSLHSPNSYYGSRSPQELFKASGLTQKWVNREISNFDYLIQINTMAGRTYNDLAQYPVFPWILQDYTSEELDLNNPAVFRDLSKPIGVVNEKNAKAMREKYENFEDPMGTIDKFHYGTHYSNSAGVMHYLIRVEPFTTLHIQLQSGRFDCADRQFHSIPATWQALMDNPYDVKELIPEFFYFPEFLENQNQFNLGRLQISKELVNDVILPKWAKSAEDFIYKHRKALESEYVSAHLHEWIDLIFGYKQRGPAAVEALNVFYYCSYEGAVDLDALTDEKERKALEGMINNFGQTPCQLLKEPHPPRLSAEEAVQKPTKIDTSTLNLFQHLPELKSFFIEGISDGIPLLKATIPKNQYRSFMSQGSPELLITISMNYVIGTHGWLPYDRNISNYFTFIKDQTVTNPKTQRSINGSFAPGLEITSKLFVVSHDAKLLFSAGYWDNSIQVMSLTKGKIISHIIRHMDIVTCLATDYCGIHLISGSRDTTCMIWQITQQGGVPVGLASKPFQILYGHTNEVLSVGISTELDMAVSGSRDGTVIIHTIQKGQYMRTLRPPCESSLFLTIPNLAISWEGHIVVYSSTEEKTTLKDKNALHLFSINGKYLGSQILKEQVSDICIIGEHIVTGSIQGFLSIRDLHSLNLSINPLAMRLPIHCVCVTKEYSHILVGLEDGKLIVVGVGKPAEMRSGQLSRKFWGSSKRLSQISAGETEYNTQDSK

Measured: binding

B1: MYC-tagged human PAQR3 (progestin and adipoQ receptor family member 3) (protein, UniProt Q6TCH7 1-311)
chain: MHQKLLKSAHYIELGSYQYWPVLVPRGIRLYTYEQIPGSLKDNPYITDGYRAYLPSRLCIKSLFILSNETVNIWSHLLGFFLFFTLGIYDMTSVLPSASASREDFVICSICLFCFQVCMLCSVGYHLFSCHRSEKTCRRWMALDYAGISIGILGCYVSGVFYAFYCNNYWRQVYLITVLAMILAVFFAQIHPNYLTQQWQRLRSIIFCSVSGYGVIPTLHWVWLNGGIGAPIVQDFAPRVIVMYMIALLAFLFYISKVPERYFPGQLNYLGSSHQIWHILAVVMLYWWHQSTVYVMQYRHSKPCPDYVSHL
binds: all assays above
